Our source for the T/C and survivor count values is PubChem BioAssay AID296 (DTP/NCI, 2004).

The subject of this assay is MX-1 breast xenograft, nude mice, tumor weight T/C. The assay can be described thus: NCI In Vivo Anticancer Drug Screen. Data for tumor model Human Mammary Carcinoma MX-1 Xenograft (intrarenal inoculation) in NU/NU Swiss (nude) mice. The settings on record: T/C endpoint: mean tumor weight change, higher T/C = larger tumour; for T/C: evaluated on day 11. The method, boiled down:
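Compound dosed to mice with transplantable tumor; vehicle group as control. Endpoint survival or tumour size, reported as T/C.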

[1] abbreviates: dose: 300.0 mg/kg/injection, schedule: Q04DX003 (sc), vehicle: saline with Tween-80.
[2] abbreviates: dose: 1200.0 mg/kg/injection, schedule: Q04DX003 (sc), vehicle: saline with Tween-80.
[3] abbreviates: dose: 8.0 mg/kg/injection, schedule: Q04DX003 (sc), vehicle: saline + alcohol.
[4] abbreviates: dose: 50.0 mg/kg/injection, schedule: Q01DX010 (sc), vehicle: saline with Tween-80.
Setting [5] is: dose: 37.5 mg/kg/injection, schedule: Q04DX003 (sc), vehicle: saline.
Setting [6] is: dose: 75.0 mg/kg/injection, schedule: Q04DX003 (sc), vehicle: saline.
Setting [7] is: dose: 25.0 mg/kg/injection, schedule: Q04DX003 (sc), vehicle: water.

The list does not hold the whole screen: it gathers tests that were run many times, whatever their T/C, doses with no T/C, and many T/C values between a quarter and a half above the control. Other doses and runs of a compound stand elsewhere. T/C is the treated group as % of the vehicle group. Schedule codes are those of the source, read here as Q, the interval in days (D) or hours (H), X, the number of doses. Some entries hold several experiments; their values stand side by side, smallest first. Some T/C values are followed by the survivors on the day toxicity was checked, most often the fifth; where none is given, no animal had died by that day. Some entries give survivors of the animals treated and no T/C: the source holds a T/C of zero for them, seemingly a mark for toxic or unscored doses. Counts of survivors are from the toxicity check (mostly the fifth day) where no day follows; animals may have died later.

Take `OCC1OC(n2cnc3cc(Cl)c(Cl)cc32)C(O)C1O` (centres undefined): the T/C under setting [1] is 125 % of control [4 of 5 alive on day 11]. Besides, the survivor count is, setting by setting: under setting [2], 3 of 6 on day 11; (dose: 2400.0 mg/kg/injection, schedule: Q04DX003 (sc), vehicle: saline with Tween-80) 1 of 5 on day 11.
Take `COC1/C=C/C=C(/C)Cc2cc(O)c(Cl)c(c2)N(C)C(=O)CC(OC(=O)C(C)C)C2(C)OC2C(C)C2CC1(O)NC(=O)O2` (centres undefined): the T/C runs as follows: (dose: 4.0 mg/kg/injection, schedule: Q04DX003 (sc), vehicle: saline + alcohol) 17, 25, 43, 59 % of control; under setting [3], 4 [4 of 6 alive on day 11], 6, 63 % of control. Besides, the survivor count reads like this: under setting [3], 3 of 6 on day 11; (dose: 16.0 mg/kg/injection, schedule: Q04DX003 (sc), vehicle: saline + alcohol) 1 of 6 on day 11; (dose: 32.0 mg/kg/injection, schedule: Q04DX003 (sc), vehicle: saline + alcohol) 0 of 6 on day 11.
`NCc1cc(O)c(O)c(O)c1`: the survivor count (dose: 1200.0 mg/kg/injection, schedule: Q04DX003 (ip), vehicle: saline) is listed as 2 of 6 on day 11.
As for `CC(=O)OCC1OC(n2cc(CBr)nn2)C(OC(C)=O)C(OC(C)=O)C1OC(C)=O` (centres undefined), the T/C runs as follows: (dose: 25.0 mg/kg/injection, schedule: Q01DX010 (sc), vehicle: saline with Tween-80) 128 % of control; under setting [4], 131 % of control; (dose: 200.0 mg/kg/injection, schedule: Q01DX010 (sc), vehicle: saline with Tween-80) 132 % of control [5 of 6 alive on day 11].
Consider `CS(=O)(=O)OCCCCOS(C)(=O)=O`, for which the survivor count under setting [4] was 0 of 3 on day 11.
Regarding `CCC(C)Nc1ccc(N)cc1` (centres undefined), under “dose: 9.0 mg/kg/injection, schedule: Q04DX003 (sc), vehicle: Klucel (hydroxypropylcellulose) (HPC)”, the T/C is 149 % of control. In addition, under “dose: 36.0 mg/kg/injection, schedule: Q04DX003 (sc), vehicle: Klucel (hydroxypropylcellulose) (HPC)”, the survivor count is recorded as 2 of 6 on day 11.
Consider `CN(C)N=Nc1cccc(C(N)=O)c1`, for which the survivor count by setting is: (dose: 200.0 mg/kg/injection, schedule: Q04DX003 (sc), vehicle: Klucel (hydroxypropylcellulose) (HPC)) 0 of 6 on day 11, 1 of 6 on day 11, 2 of 6 on day 11; (dose: 400.0 mg/kg/injection, schedule: Q04DX003 (sc), vehicle: Klucel (hydroxypropylcellulose) (HPC)) 0 of 6 on day 11.
With `N#Cc1nc(C#N)c(Sc2ccccc2)c(Sc2ccccc2)c1Sc1ccccc1`, the T/C under setting [4] is 125 % of control.
Consider `Cc1ncc(CNC(=O)N(CCCl)N=O)c(N)n1`, for which the survivor count under setting [5] is listed as 3 of 6 on day 11 and the survivor count under setting [6] is 0 of 6 on day 11.
For the compound `CC[C@H]1CN2CCc3cc(OC)c(OC)cc3[C@@H]2C[C@@H]1C[C@H]1NCCc2cc(OC)c(OC)cc21`, the T/C (dose: 1.0 mg/kg/injection, schedule: Q01DX010 (sc), vehicle: saline) was 137 % of control. Also, where the note is “dose: 8.0 mg/kg/injection, schedule: Q01DX010 (sc), vehicle: saline”, the survivor count is 0 of 3 on day 11.
Take `O=C1NCC(Br)C(=O)N1` (centres undefined): the T/C under setting [1] is 125 % of control. Besides, the survivor count is 1 of 6 on day 11 (dose: 600.0 mg/kg/injection, schedule: Q04DX003 (sc), vehicle: saline with Tween-80) and 0 of 6 on day 11 under setting [2].
On to `NC(=O)SCC(N)C(=O)O` (centres undefined), for which the survivor count (dose: 1350.0 mg/kg/injection, schedule: Q04DX003 (sc), vehicle: suspension in saline) is on record as 0 of 6 on day 11 and the survivor count (dose: 1800.0 mg/kg/injection, schedule: Q04DX003 (sc), vehicle: suspension in saline) is 0 of 6 on day 11.
Take `C=C(C)[C@]12CC(C)C34OC(/C=C\C=C\CCCCCCCCC)(O[C@@H]1[C@@H]3[C@@H]1O[C@]1(CO)[C@@H](O)[C@]1(O)C(=O)C(C)=C[C@@H]41)O2` (some centres undefined): the survivor count (dose: 24.0 mg/kg/injection, schedule: Q04DX003 (sc), vehicle: distilled water + alcohol) is listed as 3 of 6 on day 11 and the survivor count (dose: 48.0 mg/kg/injection, schedule: Q04DX003 (sc), vehicle: distilled water + alcohol) is 3 of 6 on day 11.
On to `Cc1ccccc1CN1C2=NCCN2C(=O)C2=C1CCN(S(=O)(=O)c1ccc(Cl)c(S(N)(=O)=O)c1)C2`, for which, under “dose: 150.0 mg/kg/injection, schedule: Q04DX003 (sc), vehicle: saline”, the T/C was 137 % of control.
For `CC(Cc1ccc(O)c(O)c1)C(C)Cc1ccc(O)c(O)c1` (centres undefined), the T/C (dose: 600.0 mg/kg/injection, schedule: Q04DX003 (sc), vehicle: saline + alcohol) is 137 % of control.
Consider `Nc1cc(Cl)c2[nH]cnc2n1`, for which the survivor count (dose: 1600.0 mg/kg/injection, schedule: Q04DX003 (sc), vehicle: water) is on record as 0 of 6 on day 11.
Take `N=C(N)CCCCCCCCC(=N)N`: the T/C runs as follows: (dose: 4.69 mg/kg/injection, schedule: Q04DX003 (sc), vehicle: saline) 146 % of control; (dose: 9.38 mg/kg/injection, schedule: Q04DX003 (sc), vehicle: saline) 140 % of control. The survivor count under setting [5] is 3 of 6 on day 11.
For the compound `NC(=O)c1ncn(C2OC(CO)C(O)C2O)c1O` (centres undefined), the survivor count (dose: 2400.0 mg/kg/injection, schedule: Q04DX003 (sc), vehicle: Klucel (hydroxypropylcellulose) (HPC)) is recorded as 1 of 6 on day 11.
Turning to `c1ccc2c(c1)nnn1c3cnccc3nc21`, the survivor count (dose: 100.0 mg/kg/injection, schedule: Q01DX010 (sc), vehicle: saline with Tween-80) is given as 1 of 2 on day 11.
As to `O=C(C1CO1)C(Cl)(Cl)Cl` (centres undefined), the T/C under setting [6] was 139 % of control. The survivor count is reported as 0 of 6 on day 11 (dose: 300.0 mg/kg/injection, schedule: Q04DX003 (sc), vehicle: saline) and 0 of 6 on day 11 (dose: 600.0 mg/kg/injection, schedule: Q04DX003 (sc), vehicle: saline).
As to `CCCCC(=O)OCC(=O)[C@]1(O)Cc2c(O)c3c(c(O)c2[C@@H](OC2CC(NC(=O)C(F)(F)F)C(O)C(C)O2)C1)C(=O)c1c(OC)cccc1C3=O` (some centres undefined), the survivor count (dose: 512.0 mg/kg/injection, schedule: Q01DX010 (sc), vehicle: distilled water + Tween-80) is 0 of 3 on day 11.
For `O=NN(CCCl)C(=O)NCCO`, the T/C (dose: 12.5 mg/kg/injection, schedule: Q04DX003 (sc), vehicle: water) is 129 % of control. Under setting [7], the T/C is 143 % of control and the survivor count is reported as 3 of 5 on day 11.
